The target of this assay is α1-antitrypsin (Prolastin, plasma-derived) (human) (UniProt P01009). The assay can be described thus: far-Western, overlay or dot blot; both purified.

Chains of the proteins cited; added tags and fusions are not shown. Residues count along the entry.
UniProt P01009, residues 25-418: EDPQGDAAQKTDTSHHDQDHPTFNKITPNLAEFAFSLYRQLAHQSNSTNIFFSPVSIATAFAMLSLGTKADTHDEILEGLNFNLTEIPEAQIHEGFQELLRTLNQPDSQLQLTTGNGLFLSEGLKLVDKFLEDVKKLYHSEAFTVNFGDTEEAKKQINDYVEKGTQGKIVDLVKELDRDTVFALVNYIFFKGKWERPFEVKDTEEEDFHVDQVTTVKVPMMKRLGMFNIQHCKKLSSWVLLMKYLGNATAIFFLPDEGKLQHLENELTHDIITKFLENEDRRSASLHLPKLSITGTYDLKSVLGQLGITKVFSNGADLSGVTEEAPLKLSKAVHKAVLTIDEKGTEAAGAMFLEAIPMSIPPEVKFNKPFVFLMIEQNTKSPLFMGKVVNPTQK
UniProt P04977, residues 35-269: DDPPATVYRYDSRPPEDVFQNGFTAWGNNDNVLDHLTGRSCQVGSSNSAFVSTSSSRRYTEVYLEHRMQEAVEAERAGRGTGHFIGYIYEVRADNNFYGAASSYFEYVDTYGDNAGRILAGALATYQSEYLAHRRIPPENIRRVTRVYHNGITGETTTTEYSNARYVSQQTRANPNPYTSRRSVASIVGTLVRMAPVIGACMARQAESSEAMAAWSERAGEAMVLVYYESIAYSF

No constants are given. Whether binding was seen depends on the method and setting.

Binding data for 1 substance are collected here from article PMC11683240.

On to “recombinant PTS1 (enzyme subunit of pertussis toxin) (from UniProt P04977 35-269)”, for which the binding entry is on record as “no binding (tested: 200 ng/ml = 0.0007616 μM)”.
